# From the supplement of paper PMC10849652
# Sequences of proteins named here, by UniProt entry; tags and fusion partners are left off. A change or cut given only in a name is not applied to a line headed by its entry.
# UniProt P59817: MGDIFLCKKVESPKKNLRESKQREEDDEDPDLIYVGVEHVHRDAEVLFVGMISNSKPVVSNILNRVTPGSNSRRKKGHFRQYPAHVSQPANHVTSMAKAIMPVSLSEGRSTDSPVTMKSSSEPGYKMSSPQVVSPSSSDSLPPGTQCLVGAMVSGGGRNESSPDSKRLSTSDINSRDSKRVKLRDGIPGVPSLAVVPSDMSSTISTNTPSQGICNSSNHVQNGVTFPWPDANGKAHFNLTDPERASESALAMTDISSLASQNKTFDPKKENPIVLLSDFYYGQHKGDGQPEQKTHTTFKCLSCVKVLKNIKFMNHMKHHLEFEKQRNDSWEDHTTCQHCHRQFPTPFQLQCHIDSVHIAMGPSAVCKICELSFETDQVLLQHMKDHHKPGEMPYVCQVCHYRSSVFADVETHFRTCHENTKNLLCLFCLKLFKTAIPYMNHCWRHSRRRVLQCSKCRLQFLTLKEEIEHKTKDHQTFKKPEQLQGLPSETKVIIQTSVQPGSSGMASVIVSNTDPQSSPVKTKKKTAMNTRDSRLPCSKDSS
# UniProt Q9UL40: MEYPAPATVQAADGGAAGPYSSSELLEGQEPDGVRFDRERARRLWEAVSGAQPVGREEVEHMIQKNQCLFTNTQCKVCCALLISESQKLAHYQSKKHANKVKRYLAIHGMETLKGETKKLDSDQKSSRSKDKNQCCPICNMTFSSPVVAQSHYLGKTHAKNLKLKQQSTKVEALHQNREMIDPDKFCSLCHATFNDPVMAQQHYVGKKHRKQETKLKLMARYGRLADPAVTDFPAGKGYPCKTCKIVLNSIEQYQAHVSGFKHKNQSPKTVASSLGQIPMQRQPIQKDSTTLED
# UniProt Q9UKY1: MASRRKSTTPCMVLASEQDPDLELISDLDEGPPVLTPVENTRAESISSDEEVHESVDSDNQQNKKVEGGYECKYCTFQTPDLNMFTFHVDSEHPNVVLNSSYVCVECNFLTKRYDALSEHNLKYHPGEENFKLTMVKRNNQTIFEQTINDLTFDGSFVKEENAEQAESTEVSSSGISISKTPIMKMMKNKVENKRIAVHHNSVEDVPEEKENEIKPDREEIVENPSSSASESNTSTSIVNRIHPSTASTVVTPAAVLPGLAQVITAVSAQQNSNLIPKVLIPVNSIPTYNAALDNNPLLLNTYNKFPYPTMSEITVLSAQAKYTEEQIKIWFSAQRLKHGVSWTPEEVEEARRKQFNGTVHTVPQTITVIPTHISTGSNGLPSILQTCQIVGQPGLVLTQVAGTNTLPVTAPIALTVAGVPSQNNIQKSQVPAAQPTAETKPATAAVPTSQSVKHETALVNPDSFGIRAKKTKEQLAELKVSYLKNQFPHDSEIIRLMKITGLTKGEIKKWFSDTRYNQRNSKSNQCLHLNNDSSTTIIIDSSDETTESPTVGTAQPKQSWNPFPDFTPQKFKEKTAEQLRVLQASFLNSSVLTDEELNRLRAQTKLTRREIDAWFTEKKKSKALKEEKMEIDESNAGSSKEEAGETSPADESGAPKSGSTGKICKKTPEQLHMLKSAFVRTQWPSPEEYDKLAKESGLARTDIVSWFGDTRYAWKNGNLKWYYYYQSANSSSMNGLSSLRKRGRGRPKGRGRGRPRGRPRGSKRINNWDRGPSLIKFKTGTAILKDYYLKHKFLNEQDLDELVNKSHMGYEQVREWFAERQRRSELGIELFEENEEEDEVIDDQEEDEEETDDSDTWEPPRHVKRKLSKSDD
# UniProt Q9Y5V0: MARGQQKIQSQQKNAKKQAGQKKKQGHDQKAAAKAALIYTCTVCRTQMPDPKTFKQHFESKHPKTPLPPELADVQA
# UniProt Q5BKZ1: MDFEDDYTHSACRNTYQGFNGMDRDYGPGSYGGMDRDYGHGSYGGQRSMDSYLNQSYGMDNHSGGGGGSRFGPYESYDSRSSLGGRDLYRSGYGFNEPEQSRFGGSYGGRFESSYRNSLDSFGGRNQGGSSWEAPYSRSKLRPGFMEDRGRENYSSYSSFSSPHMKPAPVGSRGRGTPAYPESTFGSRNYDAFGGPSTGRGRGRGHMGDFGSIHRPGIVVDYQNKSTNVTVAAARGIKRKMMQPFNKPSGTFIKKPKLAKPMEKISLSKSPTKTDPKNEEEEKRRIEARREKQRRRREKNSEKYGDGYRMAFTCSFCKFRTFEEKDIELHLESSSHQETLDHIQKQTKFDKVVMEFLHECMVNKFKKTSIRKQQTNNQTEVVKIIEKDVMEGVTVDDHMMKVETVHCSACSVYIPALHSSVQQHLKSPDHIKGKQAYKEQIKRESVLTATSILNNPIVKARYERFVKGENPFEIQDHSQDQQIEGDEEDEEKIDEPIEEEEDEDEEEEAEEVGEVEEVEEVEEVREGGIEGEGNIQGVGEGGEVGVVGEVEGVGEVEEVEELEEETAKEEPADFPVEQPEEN
# UniProt Q9Y2X9: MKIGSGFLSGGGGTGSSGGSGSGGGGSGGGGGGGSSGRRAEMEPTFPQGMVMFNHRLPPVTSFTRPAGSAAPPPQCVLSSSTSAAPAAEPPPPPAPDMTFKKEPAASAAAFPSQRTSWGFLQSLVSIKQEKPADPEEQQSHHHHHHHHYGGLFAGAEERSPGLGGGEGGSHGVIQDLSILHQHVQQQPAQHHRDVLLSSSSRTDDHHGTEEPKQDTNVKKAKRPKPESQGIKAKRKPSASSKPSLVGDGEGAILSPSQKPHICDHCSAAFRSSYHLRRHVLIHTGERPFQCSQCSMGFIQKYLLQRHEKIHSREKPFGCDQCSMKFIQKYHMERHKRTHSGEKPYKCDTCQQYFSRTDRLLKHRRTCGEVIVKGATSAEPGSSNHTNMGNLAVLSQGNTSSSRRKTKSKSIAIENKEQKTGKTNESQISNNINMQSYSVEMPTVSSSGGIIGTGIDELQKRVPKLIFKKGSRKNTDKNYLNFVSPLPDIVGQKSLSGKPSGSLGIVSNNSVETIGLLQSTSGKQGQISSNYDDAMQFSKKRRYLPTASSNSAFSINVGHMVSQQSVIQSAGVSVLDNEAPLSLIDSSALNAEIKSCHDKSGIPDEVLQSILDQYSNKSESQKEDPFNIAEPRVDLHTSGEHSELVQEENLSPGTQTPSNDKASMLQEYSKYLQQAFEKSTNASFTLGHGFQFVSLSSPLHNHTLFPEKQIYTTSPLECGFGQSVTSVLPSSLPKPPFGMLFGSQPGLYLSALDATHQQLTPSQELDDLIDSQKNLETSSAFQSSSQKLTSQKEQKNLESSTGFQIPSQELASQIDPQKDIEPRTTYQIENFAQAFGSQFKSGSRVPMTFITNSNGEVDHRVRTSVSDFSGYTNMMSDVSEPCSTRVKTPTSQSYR
# UniProt Q8IZC7: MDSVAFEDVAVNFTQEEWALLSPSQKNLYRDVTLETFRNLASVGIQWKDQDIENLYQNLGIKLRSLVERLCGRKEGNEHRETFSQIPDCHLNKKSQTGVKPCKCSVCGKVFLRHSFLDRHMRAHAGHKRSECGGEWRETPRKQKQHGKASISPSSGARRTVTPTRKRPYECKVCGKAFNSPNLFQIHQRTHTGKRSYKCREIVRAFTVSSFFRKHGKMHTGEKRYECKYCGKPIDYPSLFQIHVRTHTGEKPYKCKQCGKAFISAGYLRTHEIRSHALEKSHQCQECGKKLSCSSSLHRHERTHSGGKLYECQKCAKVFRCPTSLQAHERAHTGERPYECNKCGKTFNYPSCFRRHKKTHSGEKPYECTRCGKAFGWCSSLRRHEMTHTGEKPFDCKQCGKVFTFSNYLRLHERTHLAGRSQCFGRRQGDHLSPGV
# UniProt Q8TF50: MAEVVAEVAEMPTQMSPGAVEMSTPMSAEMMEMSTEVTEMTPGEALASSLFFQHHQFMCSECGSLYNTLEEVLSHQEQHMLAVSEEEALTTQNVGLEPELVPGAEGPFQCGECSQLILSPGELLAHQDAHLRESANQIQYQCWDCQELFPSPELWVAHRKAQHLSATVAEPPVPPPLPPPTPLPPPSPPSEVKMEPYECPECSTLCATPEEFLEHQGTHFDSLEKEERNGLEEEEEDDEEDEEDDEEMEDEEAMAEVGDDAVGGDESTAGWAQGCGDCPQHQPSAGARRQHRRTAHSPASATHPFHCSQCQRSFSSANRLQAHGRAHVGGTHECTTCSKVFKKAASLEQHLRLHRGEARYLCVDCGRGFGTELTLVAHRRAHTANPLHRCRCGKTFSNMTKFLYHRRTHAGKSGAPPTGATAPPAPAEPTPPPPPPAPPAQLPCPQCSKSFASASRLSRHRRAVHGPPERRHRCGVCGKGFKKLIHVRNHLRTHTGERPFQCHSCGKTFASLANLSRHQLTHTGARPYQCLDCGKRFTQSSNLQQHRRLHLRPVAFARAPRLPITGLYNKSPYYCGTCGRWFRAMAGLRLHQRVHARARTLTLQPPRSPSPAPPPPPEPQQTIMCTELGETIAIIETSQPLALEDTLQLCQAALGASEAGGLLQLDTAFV
# UniProt Q96K58: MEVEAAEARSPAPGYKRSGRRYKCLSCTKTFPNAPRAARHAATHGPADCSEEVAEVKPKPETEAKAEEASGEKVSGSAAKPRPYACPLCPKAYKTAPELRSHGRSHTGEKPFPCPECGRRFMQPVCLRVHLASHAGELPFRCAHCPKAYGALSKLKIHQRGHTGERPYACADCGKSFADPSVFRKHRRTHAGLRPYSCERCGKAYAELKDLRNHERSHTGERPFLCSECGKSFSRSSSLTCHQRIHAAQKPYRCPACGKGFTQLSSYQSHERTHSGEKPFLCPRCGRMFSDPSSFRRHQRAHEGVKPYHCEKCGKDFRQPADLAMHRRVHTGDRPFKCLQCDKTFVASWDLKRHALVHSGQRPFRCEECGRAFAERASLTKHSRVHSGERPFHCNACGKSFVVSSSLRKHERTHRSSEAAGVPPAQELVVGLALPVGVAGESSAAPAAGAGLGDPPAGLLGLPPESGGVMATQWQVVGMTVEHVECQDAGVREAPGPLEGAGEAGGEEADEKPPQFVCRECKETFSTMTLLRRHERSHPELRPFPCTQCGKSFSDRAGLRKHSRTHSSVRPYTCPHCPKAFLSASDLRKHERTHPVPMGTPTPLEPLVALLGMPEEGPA
# UniProt O43257, whole entry, looked up: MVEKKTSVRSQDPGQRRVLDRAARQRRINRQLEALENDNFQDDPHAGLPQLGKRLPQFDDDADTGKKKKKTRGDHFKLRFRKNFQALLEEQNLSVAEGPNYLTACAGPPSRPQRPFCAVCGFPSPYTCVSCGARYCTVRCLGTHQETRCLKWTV
# ZNF654, A0A1B0GWA0, UniProt A0A1B0GWA0, whole entry, looked up: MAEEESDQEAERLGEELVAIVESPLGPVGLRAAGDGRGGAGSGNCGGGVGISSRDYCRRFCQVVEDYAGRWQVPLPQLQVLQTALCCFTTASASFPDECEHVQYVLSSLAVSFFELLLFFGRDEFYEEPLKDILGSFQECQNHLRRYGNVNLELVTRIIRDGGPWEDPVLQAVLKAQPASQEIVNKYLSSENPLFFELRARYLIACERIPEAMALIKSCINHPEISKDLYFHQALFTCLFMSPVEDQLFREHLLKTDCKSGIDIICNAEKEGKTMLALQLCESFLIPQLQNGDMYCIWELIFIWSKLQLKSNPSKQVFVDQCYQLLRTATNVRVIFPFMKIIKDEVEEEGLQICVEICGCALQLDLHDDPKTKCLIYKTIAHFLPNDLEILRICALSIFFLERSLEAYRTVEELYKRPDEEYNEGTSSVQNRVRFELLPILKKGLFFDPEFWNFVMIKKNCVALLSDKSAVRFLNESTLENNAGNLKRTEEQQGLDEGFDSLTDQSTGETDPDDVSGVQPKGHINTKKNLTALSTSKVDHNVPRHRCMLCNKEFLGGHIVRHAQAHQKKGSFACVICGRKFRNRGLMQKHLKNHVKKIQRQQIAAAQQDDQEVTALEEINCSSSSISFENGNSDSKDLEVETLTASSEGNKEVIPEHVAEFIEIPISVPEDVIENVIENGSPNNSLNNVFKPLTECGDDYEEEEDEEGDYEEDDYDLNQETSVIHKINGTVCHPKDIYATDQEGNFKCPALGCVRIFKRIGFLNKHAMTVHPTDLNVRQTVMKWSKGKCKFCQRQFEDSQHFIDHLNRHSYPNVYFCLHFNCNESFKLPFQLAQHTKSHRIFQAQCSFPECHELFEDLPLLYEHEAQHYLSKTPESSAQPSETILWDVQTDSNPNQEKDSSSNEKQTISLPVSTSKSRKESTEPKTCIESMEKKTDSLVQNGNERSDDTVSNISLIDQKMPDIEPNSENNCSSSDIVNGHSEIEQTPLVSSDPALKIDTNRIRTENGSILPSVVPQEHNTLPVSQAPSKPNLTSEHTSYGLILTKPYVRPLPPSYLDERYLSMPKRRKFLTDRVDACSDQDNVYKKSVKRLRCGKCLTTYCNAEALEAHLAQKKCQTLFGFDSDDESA
# UniProt Q9P1U0, whole entry, looked up: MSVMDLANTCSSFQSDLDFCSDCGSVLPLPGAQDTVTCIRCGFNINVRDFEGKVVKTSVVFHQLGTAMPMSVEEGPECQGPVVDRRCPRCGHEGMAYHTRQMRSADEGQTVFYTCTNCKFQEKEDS
# UniProt Q15649: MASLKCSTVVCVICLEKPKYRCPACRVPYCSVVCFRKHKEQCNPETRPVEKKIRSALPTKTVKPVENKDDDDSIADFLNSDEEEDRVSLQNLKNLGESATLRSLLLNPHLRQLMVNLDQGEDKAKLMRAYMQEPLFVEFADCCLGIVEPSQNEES
# The list shows a part of the results.
# Legend:
# Assay in all cases: log2 fold change, soluble protein after heating vs DMSO (PISA); higher = thermal stabilisation; K562 lysate, 10 uM; active = over 0.2 and 3.5 SD of the protein, either way, in both replicates (recomputed)
# [1] = compound: Cc1cn(-c2cc(NC(=O)c3ccc(C)c(Nc4nccc(-c5cccnc5)n4)c3)cc(C(F)(F)F)c2)cn1 [nilotinib]
# Procedure, shortened: (§1)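 Thermal stability, expressed as log-two fold change relative to solvent controls, is given from duplicates. Crude K562 extract in PBS pH 7.4 with 1 mM MgCl2, at 1 mg/mL protein, was treated with 10 μM compound for 30 min and heated in aliquots for 3 min across 48°C-58°C. After pooling, adjustment to 0.5% NP-40 at 4°C and centrifugation at 21,000xg for 90 min, supernatant protein was measured by TMTpro 16plex LC-MS/MS with channel sums equalised.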
# [2] = compound: Cc1nc(Nc2n[nH]c3c2CN(C(=O)N[C@H](CN(C)C)c2ccccc2)C3(C)C)c2sccc2n1
# Procedure, shortened: as §1
# [3] = compound: Cc1nc(Nc2ncc(C(=O)Nc3c(C)cccc3Cl)s2)cc(N2CCN(CCO)CC2)n1 [dasatinib]
# Procedure, shortened: as §1
# [4] = compound: Cc1ncc(-c2ccnc(Nc3ccc(S(C)(=O)=O)cc3)n2)n1C(C)C
# Procedure, shortened: as §1
# [5] = compound: Cn1cc(-c2ccc3c(c2)CCN3C(=O)Cc2cccc(C(F)(F)F)c2)c2c(N)ncnc21
# Procedure, shortened: as §1
# [6] = compound: Cn1cc(CNCC2CCN(c3ncc(C(=O)NO)cn3)CC2)c2ccccc21 [quisinostat]
# Procedure, shortened: as §1
# [7] = compound: Cn1cncc1[C@@](N)(c1ccc(Cl)cc1)c1ccc2c(c1)c(-c1cccc(Cl)c1)cc(=O)n2C [tipifarnib]
# Procedure, shortened: as §1
# [8] = compound: NC(=O)Nc1cc(-c2cccc(F)c2)sc1C(=O)N[C@H]1CCCNC1
# Procedure, shortened: as §1
# [9] = compound: NC1(c2ccc(-c3nc4ccn5c(=O)[nH]nc5c4cc3-c3ccccc3)cc2)CCC1
# Procedure, shortened: as §1
# [10] = compound: O=C(CCCCCCC(=O)Nc1ccccc1)NO [vorinostat]
# Procedure, shortened: as §1
# [11] = compound: O=C(O)c1ccc2c(c1)nc(Nc1cccc(Cl)c1)c1ccncc12 [silmitasertib]
# Procedure, shortened: as §1
# [12] = compound: O=C1NC(=O)C(c2cnc3ccccn23)=C1c1cn2c3c(cc(F)cc13)CN(C(=O)N1CCCCC1)CC2
# Procedure, shortened: as §1
# [13] = compound: NC(=O)c1cnc(N[C@@H]2CCCC[C@@H]2N)nc1Nc1cccc(-n2nccn2)c1
# Procedure, shortened: as §1
# [14] = compound: c1cn2cc(-c3ccc4cn[nH]c4c3)nc(Nc3ccc(N4CCOCC4)cc3)c2n1 [entospletinib]
# Procedure, shortened: as §1
# [15] = compound: NCC(=O)Nc1ccc(-n2nc(C(F)(F)F)cc2-c2ccc3c(ccc4ccccc43)c2)cc1
# Procedure, shortened: as §1
Target,log2 fold change [1],log2 fold change [2],log2 fold change [3],log2 fold change [4],log2 fold change [5],log2 fold change [6],log2 fold change [7],log2 fold change [8],log2 fold change [9],log2 fold change [10],log2 fold change [11],log2 fold change [12],log2 fold change [13],log2 fold change [14],log2 fold change [15]
ZNF280A (UniProt P59817),inactive: 0.181,inactive: -0.074,inactive: -0.148,inactive: 0.024,inactive: -0.033,inactive: -0.125,inactive: -0.173,inactive: -0.068,inactive: -0.081,inactive: -0.333,inactive: -0.066,inactive: 0.01,–,–,–
ZNF346 (UniProt Q9UL40),inactive: -0.005,inactive: 0.02,inactive: -0.099,inactive: 0.021,inactive: 0.014,inactive: -0.014,inactive: 0.015,inactive: 0.005,inactive: 0.01,inactive: 0.137,inactive: 0.018,inactive: -0.05,inactive: 0.011,inactive: 0.02,–
ZHX1 (UniProt Q9UKY1),inactive: 0.011,inactive: -0.012,inactive: 0,inactive: 0.06,inactive: -0.096,inactive: -0.035,inactive: 0.007,inactive: 0.039,inactive: -0.011,inactive: -0.249,inactive: -0.094,inactive: -0.018,inactive: -0.047,inactive: -0.082,inactive: 0.043
ZNF687 (UniProt Q8N1G0),inactive: -0.166,inactive: -0.09,inactive: -0.017,inactive: 0.017,inactive: 0.208,inactive: -0.016,inactive: 0.109,inactive: 0.025,inactive: 0.009,inactive: -0.056,inactive: -0.028,inactive: -0.079,inactive: -0.119,inactive: -0.105,–
ZNF598 isoform 3 (UniProt Q86UK7),inactive: -0.004,inactive: -0.022,inactive: -0.063,inactive: 0.031,inactive: 0.032,inactive: -0.023,inactive: -0.019,inactive: 0.01,inactive: 0.029,active: -0.338,inactive: 0,inactive: 0.024,inactive: 0.011,inactive: -0.017,inactive: 0.01
ZNF706 (UniProt Q9Y5V0),inactive: -0.01,inactive: -0.005,inactive: -0.102,inactive: -0.019,inactive: -0.05,inactive: 0.065,inactive: 0.013,inactive: -0.042,inactive: -0.056,inactive: 0.139,inactive: 0.003,inactive: 0.044,inactive: 0.002,inactive: 0.015,inactive: -0.003
ZNF830 (UniProt Q96NB3),inactive: -0.024,inactive: -0.055,inactive: 0.016,inactive: 0.058,inactive: 0.037,inactive: -0.014,inactive: 0.074,inactive: -0.053,inactive: -0.025,inactive: 0.072,inactive: 0.001,inactive: 0.027,inactive: 0.004,inactive: -0.004,inactive: -0.021
ZNF326 (UniProt Q5BKZ1),inactive: -0.053,inactive: -0.002,inactive: -0.021,inactive: -0.047,inactive: -0.005,inactive: 0.007,inactive: 0.084,inactive: -0.008,inactive: 0.06,inactive: 0.016,inactive: -0.053,inactive: 0.044,–,inactive: 0.015,inactive: 0.044
ZNF8 (UniProt P17098),inactive: -0.119,inactive: -0.228,inactive: -0.072,inactive: 0.185,inactive: 0.088,inactive: -0.431,inactive: -0.101,inactive: 0.131,inactive: 0.034,inactive: -0.137,inactive: 0.001,inactive: -0.087,–,–,inactive: -0.001
ZNF552 (UniProt Q9H707),inactive: -0.076,inactive: 0.029,–,inactive: 0.043,–,–,inactive: -0.094,–,–,–,–,–,–,–,–
ZNF670 (UniProt Q9BS34),inactive: -0.023,inactive: 0.011,–,inactive: 0.101,–,–,inactive: -0.103,–,inactive: 0.003,inactive: -0.04,inactive: 0.014,–,–,–,–
ZGRF1 (UniProt Q86YA3),–,–,inactive: -0.008,–,inactive: -0.029,inactive: -0.017,–,inactive: 0.132,–,–,–,inactive: -0.042,–,inactive: -0.031,–
ZNF562 (UniProt Q6V9R5),–,–,inactive: 0.1,–,inactive: -0.156,–,–,–,–,–,–,–,–,–,–
ZNF281 (UniProt Q9Y2X9),–,–,inactive: -0.041,–,inactive: 0.031,inactive: 0.151,–,inactive: -0.028,inactive: 0.02,active: -0.403,inactive: -0.084,inactive: -0.072,–,–,–
ZNF101 (UniProt Q8IZC7),–,–,inactive: -0.077,–,inactive: -0.036,inactive: -0.035,–,inactive: -0.084,inactive: 0.245,inactive: -0.207,inactive: 0.265,inactive: -0.022,inactive: -0.045,–,–
ZNF526 (UniProt Q8TF50),inactive: -0.06,inactive: -0.02,inactive: 0.019,inactive: -0.027,inactive: -0.135,–,inactive: 0.028,–,inactive: -0.166,inactive: -0.112,inactive: 0.041,–,–,–,–
ZNF808 (UniProt Q8N4W9),–,–,inactive: -0.165,–,inactive: 0.035,inactive: -0.121,–,inactive: 0.173,–,–,–,inactive: 0.443,–,–,–

Target,log2 fold change [1],log2 fold change [2],log2 fold change [3],log2 fold change [4],log2 fold change [5],log2 fold change [6],log2 fold change [7],log2 fold change [8],log2 fold change [9],log2 fold change [10],log2 fold change [11],log2 fold change [12],log2 fold change [13],log2 fold change [14],log2 fold change [15]
ZNF816 (UniProt Q0VGE8),inactive: -0.194,inactive: 0.094,–,inactive: -0.141,–,inactive: 0.175,inactive: 0.082,inactive: 0.268,–,–,–,inactive: 0.082,–,–,–
ZNF668 isoform 2 (UniProt Q96K58),inactive: 0.062,inactive: -0.166,–,inactive: -0.044,–,inactive: 0.08,inactive: 0.038,inactive: 0.074,inactive: 0.064,inactive: -0.354,inactive: -0.131,inactive: -0.023,inactive: 0.049,–,–
ZNF691 (UniProt Q5VV52),–,–,inactive: -0.002,–,inactive: -0.042,inactive: 0.145,–,inactive: 0.014,–,–,–,inactive: 0.074,inactive: -0.017,inactive: 0.074,inactive: -0.02
ZSWIM7 (UniProt Q19AV6),–,–,inactive: -0.207,–,inactive: 0.133,–,–,–,inactive: 0.119,inactive: -0.188,inactive: -0.211,–,–,–,inactive: 0.188
ZNHIT1 (UniProt O43257),inactive: -0.023,inactive: -0.057,–,inactive: -0.134,–,–,inactive: 0.034,–,inactive: -0.147,inactive: 0.001,inactive: 0.011,–,–,inactive: -0.008,–
ZYG11A (UniProt Q6WRX3),inactive: 0.151,inactive: -0.077,–,inactive: -0.227,–,–,inactive: -0.124,–,inactive: -0.068,active: 0.719,inactive: 0.17,–,inactive: 0.085,–,–
ZNF324 (UniProt O75467),inactive: 0.065,inactive: -0.055,–,inactive: -0.159,–,inactive: 0.108,inactive: 0.155,inactive: -0.051,–,–,–,inactive: -0.187,inactive: -0.011,–,–
ZNF385A (UniProt Q96PM9),inactive: 0.012,inactive: 0.081,–,inactive: 0.029,–,inactive: 0.043,inactive: -0.094,inactive: 0.089,inactive: 0.086,inactive: 0.049,inactive: 0.037,inactive: -0.01,–,–,–
ZUP1 (UniProt Q96AP4),–,–,inactive: -0.029,–,inactive: -0.074,–,–,–,–,–,–,–,–,–,–
ZNF280B (UniProt Q86YH2),inactive: 0.006,inactive: 0.071,–,inactive: -0.048,–,inactive: -0.013,inactive: -0.011,inactive: 0.004,inactive: -0.019,inactive: -0.374,inactive: -0.077,inactive: -0.095,–,–,inactive: -0.03
"ZNF654, A0A1B0GWA0",inactive: 0.047,inactive: -0.071,–,inactive: 0.112,–,inactive: -0.114,inactive: -0.191,inactive: 0.109,inactive: 0.068,inactive: -0.212,inactive: -0.023,inactive: 0.171,inactive: -0.001,–,–
ZNF440 (UniProt Q8IYI8),inactive: 0.112,inactive: -0.112,–,inactive: -0.031,–,–,inactive: 0.109,–,–,–,–,–,–,–,–
ZNRD1 (UniProt Q9P1U0),inactive: 0.14,inactive: 0.013,–,inactive: 0.066,–,–,inactive: -0.055,–,inactive: 0.028,inactive: 0.115,inactive: 0.022,–,–,–,–
ZNF785 (UniProt A8K8V0),–,–,inactive: 0.105,–,inactive: 0.317,–,–,–,–,–,–,–,inactive: -0.058,–,–
ZNHIT3 (UniProt Q15649),–,–,inactive: -0.044,–,inactive: 0.001,inactive: 0.044,–,inactive: -0.053,inactive: 0.032,inactive: 0.04,inactive: 0.049,inactive: 0.108,inactive: -0.062,inactive: -0.141,inactive: -0.037
ZNRF2 (UniProt Q8NHG8),inactive: 0.079,inactive: 0.035,–,inactive: 0.095,–,inactive: -0.084,inactive: -0.147,inactive: 0,–,–,–,inactive: -0.008,inactive: -0.145,inactive: -0.068,inactive: 0.011

# Reprinted from above (two entries):
Target,log2 fold change [1],log2 fold change [2],log2 fold change [3],log2 fold change [4],log2 fold change [5],log2 fold change [6],log2 fold change [7],log2 fold change [8],log2 fold change [9],log2 fold change [10],log2 fold change [11],log2 fold change [12],log2 fold change [13],log2 fold change [14],log2 fold change [15]
ZNF816 (UniProt Q0VGE8),inactive: -0.194,inactive: 0.094,–,inactive: -0.141,–,inactive: 0.175,inactive: 0.082,inactive: 0.268,–,–,–,inactive: 0.082,–,–,–
ZNF668 isoform 2 (UniProt Q96K58),inactive: 0.062,inactive: -0.166,–,inactive: -0.044,–,inactive: 0.08,inactive: 0.038,inactive: 0.074,inactive: 0.064,inactive: -0.354,inactive: -0.131,inactive: -0.023,inactive: 0.049,–,–
